Data as given in patent US12691069B2 (KORANEX CAPITAL, priority 2022, dated 2026).

Experiment: peptide synthesis
Settings: whole synthesis, RP-HPLC

PEPTIDE1{[Mdp].G.G.F.L.R.R.I.R.P.K.[am]}$$$$V2.0
final HPLC purity: ≥98%

HELM strings list residues between dots; [ac] is acetyl, [am] amide, other brackets name non-standard units.
